# Cleaved PARP after 72 h of treatment

From a melanoma drug combination screen (doi:10.1371/journal.pone.0140310); values rounded.

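The test systems are human melanoma cell lines, treated with a pair of drugs for 72 h and then stained and imaged. Each value is the cleaved-PARP-positive fraction of nuclei relative to DMSO-treated wells, in %, so that 100 equals the control and higher values mean more apoptosis. Concentrations were fixed for each drug; these are the higher of two levels. These are primary screening values without error estimates. The marker varies much from line to line, for technical or biological reasons.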
Only some of the drugs and lines screened are listed, without regard to their results.
An entry leaves out what has no value listed here.

Compounds and concentrations:
PLX4720: CCCS(=O)(=O)Nc1ccc(F)c(C(=O)c2c[nH]c3ncc(Cl)cc23)c1F at 0.4 µM
SNS-032: CC(C)(C)c1cnc(CSc2cnc(NC(=O)C3CCNCC3)s2)o1 at 0.05 µM
tanespimycin: C=CCNC1=C2C[C@@H](C)C[C@H](OC)[C@H](O)[C@@H](C)/C=C(\C)[C@H](OC(N)=O)[C@@H](OC)/C=C\C=C(/C)C(=O)NC(=CC1=O)C2=O at 0.01 µM
vatalanib: Clc1ccc(Nc2nnc(Cc3ccncc3)c3ccccc23)cc1 at 10 µM
KU-0063794: COc1ccc(-c2ccc3c(N4CCOCC4)nc(N4C[C@@H](C)O[C@@H](C)C4)nc3n2)cc1CO at 0.1 µM
PF-04217903: OCCn1cc(-c2cnc3nnn(Cc4ccc5ncccc5c4)c3n2)cn1 at 5 µM
decitabine: Nc1ncn([C@H]2C[C@H](O)[C@@H](CO)O2)c(=O)n1 at 0.5 µM
IMD-0354: O=C(Nc1cc(C(F)(F)F)cc(C(F)(F)F)c1)c1cc(Cl)ccc1O at 0.08 µM
fingolimod: CCCCCCCCc1ccc(CCC(N)(CO)CO)cc1 at 10 µM
sorafenib: CNC(=O)c1cc(Oc2ccc(NC(=O)Nc3ccc(Cl)c(C(F)(F)F)c3)cc2)ccn1 at 2 µM
SU6656: CN(C)S(=O)(=O)c1ccc2c(c1)/C(=C/c1cc3c([nH]1)CCCC3)C(=O)N2 at 2 µM
vismodegib: CS(=O)(=O)c1ccc(C(=O)Nc2ccc(Cl)c(-c3ccccn3)c2)c(Cl)c1 at 5 µM
lenalidomide: Nc1cccc2c1CN(C1CCC(=O)NC1=O)C2=O (stereo unspecified) at 5 µM

For PLX4720 and PF-04217903 the values were RVH-421: 60.1; WM115: 243; WM1745: 89.5; A2058: 88.1. SNS-032 and lenalidomide gave RVH-421: 48.9; WM115: 67.1; WM1745: 94.5; A2058: 104. Results for KU-0063794 and IMD-0354 are RVH-421: 69.3; WM115: 264; A2058: 99.4.

With SNS-032 and SU6656 the screen read RVH-421: 120; WM115: 92.6; WM1745: 132; A2058: 161. Results for PF-04217903 and SNS-032 are RVH-421: 89.8; WM115: 108; WM1745: 108; A2058: 114. Results for SU6656 and fingolimod are RVH-421: 204; WM115: 4170; WM1745: 979; A2058: 3690.

With PF-04217903 and IMD-0354 the screen read RVH-421: 49.6; WM115: 116; WM1745: 132; A2058: 92.7. tanespimycin and vismodegib gave RVH-421: 111; WM115: 1520; WM1745: 139; A2058: 173. PLX4720 and tanespimycin gave RVH-421: 146; WM115: 425; WM1745: 115; A2058: 197.

PLX4720 and sorafenib gave RVH-421: 378; WM115: 55.2; WM1745: 136; A2058: 93.7. For PF-04217903 and sorafenib the values were RVH-421: 178; WM115: 64.9; WM1745: 109; A2058: 166. Results for SU6656 and vismodegib are RVH-421: 107; WM115: 221; WM1745: 162; A2058: 78.1.

Results for vatalanib and lenalidomide are RVH-421: 126; WM115: 145; WM1745: 142; A2058: 104. With PF-04217903 and lenalidomide the screen read RVH-421: 26.6; WM115: 68.3; WM1745: 116; A2058: 66.0. With PF-04217903 and KU-0063794 the screen read RVH-421: 76.8; WM115: 856; WM1745: 122; A2058: 72.6.

With vismodegib and vatalanib the screen read RVH-421: 150; WM115: 99.5; WM1745: 189; A2058: 90.7. Results for IMD-0354 and fingolimod are RVH-421: 1020; WM115: 3820; WM1745: 2420; A2058: 1740. With vismodegib and sorafenib the screen read RVH-421: 25.6; WM115: 45.3; WM1745: 107; A2058: 88.2.

For SU6656 and vatalanib the values were RVH-421: 150; WM115: 931; WM1745: 435; A2058: 296. For fingolimod and SNS-032 the values were RVH-421: 2830; WM115: 1590; WM1745: 5450; A2058: 1720. With decitabine and lenalidomide the screen read RVH-421: 90.6; WM115: 397; WM1745: 151; A2058: 198.

Results for decitabine and vismodegib are RVH-421: 60.9; WM115: 154; WM1745: 217; A2058: 193. decitabine and SNS-032 gave RVH-421: 139; WM115: 90.5; WM1745: 80.4; A2058: 281. Results for fingolimod and PLX4720 are RVH-421: 291; WM115: 7420; WM1745: 3650; A2058: 1480.

With tanespimycin and sorafenib the screen read RVH-421: 28.8; WM115: 1510; WM1745: 128; A2058: 145. For lenalidomide and vismodegib the values were RVH-421: 127; WM115: 165; WM1745: 95.2; A2058: 71.3. Results for SU6656 and PLX4720 are RVH-421: 158; WM115: 197; WM1745: 288; A2058: 135.